Reference: article PMC12712653
These are yes or no findings as the source states them, for the method shown. In cells and extracts the contact can be indirect. Binding can be weak; no strength is given.

Molecular target: T1, nuclear factor kappa-B repressing factor (NKRF) (human (endogenous in MRC-5)) (UniProt O15226)
T1 sequence: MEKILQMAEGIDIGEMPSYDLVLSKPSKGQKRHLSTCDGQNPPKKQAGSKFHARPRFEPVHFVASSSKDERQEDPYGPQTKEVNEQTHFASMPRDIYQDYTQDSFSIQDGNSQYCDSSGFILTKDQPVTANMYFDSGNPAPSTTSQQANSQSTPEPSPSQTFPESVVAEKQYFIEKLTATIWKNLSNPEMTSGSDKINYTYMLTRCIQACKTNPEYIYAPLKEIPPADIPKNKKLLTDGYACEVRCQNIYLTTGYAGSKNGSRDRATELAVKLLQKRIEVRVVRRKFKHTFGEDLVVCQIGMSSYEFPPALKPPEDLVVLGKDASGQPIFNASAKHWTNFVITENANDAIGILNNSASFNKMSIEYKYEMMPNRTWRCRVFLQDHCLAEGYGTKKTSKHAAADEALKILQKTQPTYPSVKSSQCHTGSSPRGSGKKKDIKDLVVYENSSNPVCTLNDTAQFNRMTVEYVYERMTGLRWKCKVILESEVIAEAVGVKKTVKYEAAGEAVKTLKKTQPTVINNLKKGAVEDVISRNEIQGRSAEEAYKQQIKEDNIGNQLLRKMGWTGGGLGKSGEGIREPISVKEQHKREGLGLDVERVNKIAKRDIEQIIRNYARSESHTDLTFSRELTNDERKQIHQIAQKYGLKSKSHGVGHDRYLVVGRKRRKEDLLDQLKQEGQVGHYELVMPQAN
Test: co-IP; MRC-5 cells 48 or 72 h after infection; lysis buffer with 150 mM KCl, 25 mM Tris-HCl pH 7.4, 5 mM EDTA, 0.5% Triton X-100, 5 mM DTT; anti-NKRF antibody overnight at 4°C, beads 2-4 h at room temperature, five washes; analysed by WB; normal IgG as negative control

## nuclear factor kappa-B (NF-κB) (human (endogenous in MRC-5))
  binding: binds
